From publication PMC5180179, “Bacteriophage T5 gene D10 encodes a branch-migration protein”
No constants are given. Whether binding was seen depends on the method and setting.

Biological target: bacteriophage T5 D10 helicase (D10 gene product) (bacteriophage T5) (UniProt P11107)
Test: SEC; Superdex 75, final purification column; 20 mM Tris-HCl pH 7.5, 0.3 M NaCl, 1 mM EDTA, 1 mM PMSF, 5 mM DTT, 10% v/v glycerol; 4 °C; both purified

B1: bacteriophage T5 D10 helicase (D10 gene product) (enzyme, UniProt P11107 1-450)
chain: MKVVISNKAYFKPDDELWDYCSKQTTYHIETMTSKYPIMYKNSGVVAKEIKWIPITRLDLLDAKGIKYELVDKRTLAPVDIPKPKFKLREEDQLPIYEECDDTCIINGKPGFGKTILALALAYKFGQKTLVICTNTSIREMWAAEVRKWFGFEPGIIGSGKYNIDPPIVVSNIQTVNKHANNLSKVFGTVIVDEVHHCVATTFTNFLEISCARYKIGLSGTLKRKDGLQVMFKDFFGYKIFSPPVNNTVAPTIHRYSVPVELSGNQNVPWALRANDVYNHPEYRETIINLAHLYVNMGHKVLIVSDRTELIQTILEALTQRGVTTYEIIGATHLDDRLKIQEDIAKGGPCVLAAAQSIFSEGISLNELSCLIMGSLINNESLIEQLAGRVQRIVEGKLDPIVVDLIMKGGTGLRQASGRMAVYRNNGWKTITMTPEKAVQLAKIAFGNSS
Q: B1 was tested. Which binding did it give?
A: no binding
